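Genome-wide siRNA knockdown in TC32 Ewing sarcoma cells, comparing luciferase light from an NR0B1-promoter reporter with a CMV-promoter reporter 48 hours after transfection.
Each siRNA was applied at 20 nM.
A z-score of the log NR0B1-over-CMV signal, less the median of siRNAs with the same seed; more negative means a stronger specific loss of the NR0B1 reporter.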

The strongest results of the screen are mostly left out here.
Sequences are the guide (antisense) strand, without overhang.

UUUGUUCACUUCCCAGGCC against FAAH read seed-corrected z-score 0.2988.
AAUCGUGUAAAGUUACUUG against TAS2R14 read seed-corrected z-score -0.06208.
UCUGAUAACGACUAUAUUC against AKIRIN1 read seed-corrected z-score 1.302.
UGCUCGAUGAACCACUUCC against ZC3H12D read seed-corrected z-score 0.292.
UACGUUUCUGCCGAAAAUC against ARHGEF12 read seed-corrected z-score 0.1007.
UUCCUUGCAUUUGUAGGUC against ZNF80 read seed-corrected z-score -0.1947.
UAUGACACUACGACUUUUC against DCTN5 read seed-corrected z-score 1.189.
UCUACAACAAACUUACUUC against PGAP1 read seed-corrected z-score 0.3636.
UAAGAGUACAGGAUCCCAG against OR7A10 read seed-corrected z-score 0.1749.
UCACGUAAGAGCUUCCAAG against RARRES1 read seed-corrected z-score -0.0502.
UAACCUUCUAACGGCUUCC against TAF11 read seed-corrected z-score 0.08281.
AUUUAUUUUGAGCUAGUUC against KRTAP13-1 read seed-corrected z-score -1.487.
AAAGUGUCUCCAUCAUUGC against CEP85 read seed-corrected z-score 0.1597.
UUCCGUUAGCUGAACAAGC against GAREM1 read seed-corrected z-score -0.06789.
UAUGGAACAGCACCUGAUC against AWAT1 read seed-corrected z-score -0.1043.
UUACGAAGGACCGUGUAGG against HEPHL1 read seed-corrected z-score -0.5138.
UGAGAAUCCAAAACGACUG against LOC400958 read seed-corrected z-score -1.018.
UUCCGAGAUACAUUUAGGG against GRIN3A read seed-corrected z-score -0.5631.
UAAGGUACUGACUUCUUCC against CD207 read seed-corrected z-score 0.9068.
UGUUAUCCAACACUGAUCU against COA5 read seed-corrected z-score 1.142.
AAUAGCUCCAGCAUGAUCU against KRTAP19-3 read seed-corrected z-score 0.9591.
GCAUUUCUCGGGCAUACAC against VSX1 read seed-corrected z-score 0.4049.
UUUCUGUCGUUUGCGUUUC against PHAX read seed-corrected z-score 0.2539.
UAAUCGUCAGGAAGCUUGC against FBXO3 read seed-corrected z-score 0.1514.
UCAGUUAUUCGGCGUAAUC against C3orf33 read seed-corrected z-score 1.984.
UUCAUAACCUUGGUUGAUG against ARMC1 read seed-corrected z-score -1.451.
UUCCAUUUCACCUGCAGGC against PLSCR4 read seed-corrected z-score -0.7865.
AUAUCAAACAGACAAAUGC against POLR3H read seed-corrected z-score 0.9609.
UAGACAAUAGGGUUCAUAG against OR52N4 read seed-corrected z-score -0.001996.
UACUUUUCUGCGAACUUCC against PDIA5 read seed-corrected z-score 0.06897.
UCUCGAUUCUGGAACAAGC against KIF18A read seed-corrected z-score -0.8179.
UGCGUUACUACAAUCUGAG against STOX1 read seed-corrected z-score 0.05713.
AAACGGGUUGUUGUCGAUC against TBX2 read seed-corrected z-score -0.8057.
UAUGUCGAGAUAUACGAUG against DCDC2C read seed-corrected z-score -0.1968.
UCCUUUUUCACCGAACGAC against FAM65C read seed-corrected z-score -0.5285.
UCUUCGUCCACGUGAAACC against TRMT44 read seed-corrected z-score -0.6608.
UUCUGGUCUCCGUUCAUUC against FDPS read seed-corrected z-score 0.4747.
UCUUGUCUAACAUAAAAGU against METTL6 read seed-corrected z-score 0.5081.
UUUGGUUCAAGCAGUGUUC against GOLGA2P10 read seed-corrected z-score 0.5283.
UAGCGGAGCACAUUGGUGU against TTC9B read seed-corrected z-score 0.2436.
UUAAAAACGAGAUCCAAGC against YPEL3 read seed-corrected z-score 0.1728.
UGUAGAUACAAAGACAUAG against RPL10 read seed-corrected z-score 0.431.
AAUGGACUGAUCAAUACCC against CETP read seed-corrected z-score 0.2926.
CUUUCAAAACGCAAACUGC against NSUN5P2 read seed-corrected z-score 0.1398.
UAAUAAGCAACUUCUUCAC against MAST1 read seed-corrected z-score 0.006889.
UUGAGCUUUAUGACAGUGC against PLCXD3 read seed-corrected z-score 0.05631.
UCCCUUUCAAAUGCGGCUU against MYDGF read seed-corrected z-score -0.5326.
CACAGUGUCAUUUACAGGC against CTU1 read seed-corrected z-score 0.5727.
UUUCUACCAACUCUGACUC against FPGT read seed-corrected z-score -0.4453.
UCUUCGACAAUUUCCACCG against SETD1B read seed-corrected z-score 0.2107.

Once more, the final 5:

{"strand": "UUGAGCUUUAUGACAGUGC", "target gene": "PLCXD3", "seed-corrected z-score": "0.05631"}
{"strand": "UCCCUUUCAAAUGCGGCUU", "target gene": "MYDGF", "seed-corrected z-score": "-0.5326"}
{"strand": "CACAGUGUCAUUUACAGGC", "target gene": "CTU1", "seed-corrected z-score": "0.5727"}
{"strand": "UUUCUACCAACUCUGACUC", "target gene": "FPGT", "seed-corrected z-score": "-0.4453"}
{"strand": "UCUUCGACAAUUUCCACCG", "target gene": "SETD1B", "seed-corrected z-score": "0.2107"}

Source: PubChem BioAssay AID1159506 (NCATS, 2015).